The other results are listed elsewhere or left out. Small differences around the control level are noise.
The targets below were run with Cc1nc(Nc2ncc(C(=O)Nc3c(C)cccc3Cl)s2)cc(N2CCN(CCO)CC2)n1 [dasatinib] (assay: log2 fold change of tryptic peptide abundance, ligand vs vehicle (limited proteolysis) (log2 ratio); higher = more trypsin-susceptible (destabilized)). Settings: ligand concentration: 5 uM; sample: K562 cleared lysate.

The chains behind the UniProt entries cited, without tags or fusion partners. Where a name states a change or a piece, a line headed by the entry shows the natural chain unless it says otherwise.
UniProt O14802: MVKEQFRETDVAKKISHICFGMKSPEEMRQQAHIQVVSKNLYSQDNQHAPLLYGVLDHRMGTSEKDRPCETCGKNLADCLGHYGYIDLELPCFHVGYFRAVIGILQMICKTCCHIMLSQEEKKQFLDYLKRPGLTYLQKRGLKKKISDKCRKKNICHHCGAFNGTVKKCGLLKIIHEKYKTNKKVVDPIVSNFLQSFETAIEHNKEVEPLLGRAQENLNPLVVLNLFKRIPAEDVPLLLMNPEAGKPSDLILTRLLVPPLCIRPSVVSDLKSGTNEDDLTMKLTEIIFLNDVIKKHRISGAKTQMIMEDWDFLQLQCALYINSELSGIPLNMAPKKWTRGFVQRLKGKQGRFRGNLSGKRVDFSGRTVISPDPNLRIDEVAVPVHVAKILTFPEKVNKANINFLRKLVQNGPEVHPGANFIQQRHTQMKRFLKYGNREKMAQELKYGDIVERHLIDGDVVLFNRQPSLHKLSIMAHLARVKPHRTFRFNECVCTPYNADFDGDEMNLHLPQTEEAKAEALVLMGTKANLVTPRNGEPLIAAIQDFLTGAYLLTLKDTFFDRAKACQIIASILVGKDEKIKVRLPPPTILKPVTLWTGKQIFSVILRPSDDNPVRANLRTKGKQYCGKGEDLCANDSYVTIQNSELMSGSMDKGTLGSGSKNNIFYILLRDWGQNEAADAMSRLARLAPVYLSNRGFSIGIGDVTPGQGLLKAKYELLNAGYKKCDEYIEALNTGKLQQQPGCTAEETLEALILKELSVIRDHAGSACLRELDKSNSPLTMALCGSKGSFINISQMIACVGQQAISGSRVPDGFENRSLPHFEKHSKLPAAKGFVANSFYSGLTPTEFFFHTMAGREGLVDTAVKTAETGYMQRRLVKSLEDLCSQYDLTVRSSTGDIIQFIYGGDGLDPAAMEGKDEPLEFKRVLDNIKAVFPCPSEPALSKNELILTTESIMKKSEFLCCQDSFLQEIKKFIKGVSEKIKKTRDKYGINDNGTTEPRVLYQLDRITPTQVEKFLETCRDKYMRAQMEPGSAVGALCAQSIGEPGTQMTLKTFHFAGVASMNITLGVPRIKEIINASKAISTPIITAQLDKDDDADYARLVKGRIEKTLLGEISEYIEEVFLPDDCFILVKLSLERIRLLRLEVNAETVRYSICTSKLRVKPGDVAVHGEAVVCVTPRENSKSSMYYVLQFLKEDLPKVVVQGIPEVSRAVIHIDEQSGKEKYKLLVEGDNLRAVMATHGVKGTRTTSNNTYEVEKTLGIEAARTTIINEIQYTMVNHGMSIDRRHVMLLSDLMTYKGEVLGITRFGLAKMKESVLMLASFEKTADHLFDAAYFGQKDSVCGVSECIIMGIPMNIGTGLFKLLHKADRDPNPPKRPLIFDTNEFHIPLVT
UniProt O14545: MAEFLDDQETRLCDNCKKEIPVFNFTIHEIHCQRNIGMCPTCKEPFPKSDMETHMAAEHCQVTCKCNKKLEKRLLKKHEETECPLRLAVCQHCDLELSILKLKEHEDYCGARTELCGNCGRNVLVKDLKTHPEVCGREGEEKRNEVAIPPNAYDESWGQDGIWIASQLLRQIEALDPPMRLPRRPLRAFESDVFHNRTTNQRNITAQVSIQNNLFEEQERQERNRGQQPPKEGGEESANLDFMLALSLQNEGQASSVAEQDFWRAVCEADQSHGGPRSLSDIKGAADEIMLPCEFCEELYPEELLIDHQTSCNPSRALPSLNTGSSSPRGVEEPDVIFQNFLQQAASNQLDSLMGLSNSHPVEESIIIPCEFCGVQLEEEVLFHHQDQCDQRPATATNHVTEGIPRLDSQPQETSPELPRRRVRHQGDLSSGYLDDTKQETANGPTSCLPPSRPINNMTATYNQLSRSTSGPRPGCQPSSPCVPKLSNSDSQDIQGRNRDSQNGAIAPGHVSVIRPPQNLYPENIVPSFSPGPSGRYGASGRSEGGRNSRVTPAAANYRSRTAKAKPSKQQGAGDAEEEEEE
UniProt O14579: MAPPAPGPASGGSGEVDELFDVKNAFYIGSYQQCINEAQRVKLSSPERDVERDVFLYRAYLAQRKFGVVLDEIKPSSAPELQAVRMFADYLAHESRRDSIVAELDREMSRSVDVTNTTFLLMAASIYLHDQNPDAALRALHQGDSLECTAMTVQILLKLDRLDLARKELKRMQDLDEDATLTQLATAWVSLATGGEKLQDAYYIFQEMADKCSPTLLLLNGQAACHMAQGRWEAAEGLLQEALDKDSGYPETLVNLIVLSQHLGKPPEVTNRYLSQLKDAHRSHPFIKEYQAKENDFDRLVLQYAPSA
UniProt O14709: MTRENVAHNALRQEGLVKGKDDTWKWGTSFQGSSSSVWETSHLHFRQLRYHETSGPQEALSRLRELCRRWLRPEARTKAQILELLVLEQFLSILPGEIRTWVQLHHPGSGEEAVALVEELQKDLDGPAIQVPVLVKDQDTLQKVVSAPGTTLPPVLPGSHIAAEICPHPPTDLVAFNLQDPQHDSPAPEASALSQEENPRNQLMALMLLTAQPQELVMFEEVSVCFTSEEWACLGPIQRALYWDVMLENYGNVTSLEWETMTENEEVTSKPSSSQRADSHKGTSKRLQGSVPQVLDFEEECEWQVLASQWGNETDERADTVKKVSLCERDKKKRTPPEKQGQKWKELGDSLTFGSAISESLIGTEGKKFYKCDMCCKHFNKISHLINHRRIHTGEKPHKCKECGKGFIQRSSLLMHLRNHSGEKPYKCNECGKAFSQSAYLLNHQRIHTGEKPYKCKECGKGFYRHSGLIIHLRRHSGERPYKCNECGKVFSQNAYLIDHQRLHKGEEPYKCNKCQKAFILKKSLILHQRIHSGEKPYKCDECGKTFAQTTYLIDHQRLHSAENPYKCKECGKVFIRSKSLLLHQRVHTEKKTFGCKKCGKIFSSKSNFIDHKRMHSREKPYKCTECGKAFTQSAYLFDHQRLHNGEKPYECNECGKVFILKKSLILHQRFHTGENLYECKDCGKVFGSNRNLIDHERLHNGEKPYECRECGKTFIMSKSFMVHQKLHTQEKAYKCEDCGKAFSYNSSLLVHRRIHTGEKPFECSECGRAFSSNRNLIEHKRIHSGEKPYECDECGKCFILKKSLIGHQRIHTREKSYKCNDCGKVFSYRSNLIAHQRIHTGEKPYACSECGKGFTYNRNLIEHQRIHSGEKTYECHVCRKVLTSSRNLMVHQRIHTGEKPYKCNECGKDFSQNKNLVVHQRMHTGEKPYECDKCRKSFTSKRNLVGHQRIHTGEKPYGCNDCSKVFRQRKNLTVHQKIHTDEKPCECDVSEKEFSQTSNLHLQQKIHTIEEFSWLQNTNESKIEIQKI
UniProt O00470: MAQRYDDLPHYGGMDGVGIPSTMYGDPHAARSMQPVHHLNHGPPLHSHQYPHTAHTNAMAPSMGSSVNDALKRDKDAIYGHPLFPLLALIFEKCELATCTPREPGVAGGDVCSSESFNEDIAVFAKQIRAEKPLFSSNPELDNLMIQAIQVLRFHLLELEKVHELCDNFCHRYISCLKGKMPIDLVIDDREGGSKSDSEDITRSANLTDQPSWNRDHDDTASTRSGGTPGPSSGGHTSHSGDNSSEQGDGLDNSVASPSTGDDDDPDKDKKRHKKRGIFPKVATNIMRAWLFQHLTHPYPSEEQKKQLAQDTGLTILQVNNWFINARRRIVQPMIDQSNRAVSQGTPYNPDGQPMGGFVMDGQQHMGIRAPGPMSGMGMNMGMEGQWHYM
UniProt O15270: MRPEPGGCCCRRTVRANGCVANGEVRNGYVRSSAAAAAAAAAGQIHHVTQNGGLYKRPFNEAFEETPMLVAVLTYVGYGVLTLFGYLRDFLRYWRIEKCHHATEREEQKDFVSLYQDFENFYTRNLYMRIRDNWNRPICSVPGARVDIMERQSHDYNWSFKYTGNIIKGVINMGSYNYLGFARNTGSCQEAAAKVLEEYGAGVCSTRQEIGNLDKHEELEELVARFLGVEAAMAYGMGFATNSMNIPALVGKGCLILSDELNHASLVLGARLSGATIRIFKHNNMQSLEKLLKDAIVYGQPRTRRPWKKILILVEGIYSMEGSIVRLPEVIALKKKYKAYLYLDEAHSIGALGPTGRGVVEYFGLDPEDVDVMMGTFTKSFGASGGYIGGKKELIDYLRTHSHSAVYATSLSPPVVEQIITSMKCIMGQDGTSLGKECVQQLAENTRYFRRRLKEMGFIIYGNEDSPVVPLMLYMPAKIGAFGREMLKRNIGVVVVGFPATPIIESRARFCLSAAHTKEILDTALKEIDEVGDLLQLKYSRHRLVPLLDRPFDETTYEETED
UniProt O15381: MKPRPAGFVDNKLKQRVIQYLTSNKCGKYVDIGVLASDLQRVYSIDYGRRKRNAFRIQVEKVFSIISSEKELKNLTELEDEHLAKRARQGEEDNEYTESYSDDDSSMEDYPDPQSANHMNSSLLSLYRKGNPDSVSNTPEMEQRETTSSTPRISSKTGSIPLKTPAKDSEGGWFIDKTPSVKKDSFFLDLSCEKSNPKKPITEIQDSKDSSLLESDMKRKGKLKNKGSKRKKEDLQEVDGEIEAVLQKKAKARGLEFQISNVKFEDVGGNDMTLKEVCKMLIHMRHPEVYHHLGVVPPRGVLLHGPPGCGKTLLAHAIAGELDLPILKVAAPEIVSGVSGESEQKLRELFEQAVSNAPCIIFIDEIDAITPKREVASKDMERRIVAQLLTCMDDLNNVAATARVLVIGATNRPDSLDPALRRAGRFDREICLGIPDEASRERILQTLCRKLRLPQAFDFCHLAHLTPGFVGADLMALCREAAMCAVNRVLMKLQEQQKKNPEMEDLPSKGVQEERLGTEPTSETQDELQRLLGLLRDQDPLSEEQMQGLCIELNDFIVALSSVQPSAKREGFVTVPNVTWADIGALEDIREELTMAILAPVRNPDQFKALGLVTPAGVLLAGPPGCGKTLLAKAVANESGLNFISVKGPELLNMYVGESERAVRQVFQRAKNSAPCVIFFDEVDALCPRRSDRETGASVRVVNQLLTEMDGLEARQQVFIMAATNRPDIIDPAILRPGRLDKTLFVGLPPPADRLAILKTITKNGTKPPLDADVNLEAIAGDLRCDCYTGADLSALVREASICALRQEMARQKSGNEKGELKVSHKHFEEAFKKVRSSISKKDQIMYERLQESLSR
UniProt O14966: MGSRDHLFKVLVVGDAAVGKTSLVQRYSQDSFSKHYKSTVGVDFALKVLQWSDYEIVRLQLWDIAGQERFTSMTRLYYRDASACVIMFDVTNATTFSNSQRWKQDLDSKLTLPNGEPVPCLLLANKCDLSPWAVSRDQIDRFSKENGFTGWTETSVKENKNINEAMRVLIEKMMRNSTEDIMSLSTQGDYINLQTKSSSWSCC
UniProt O15379: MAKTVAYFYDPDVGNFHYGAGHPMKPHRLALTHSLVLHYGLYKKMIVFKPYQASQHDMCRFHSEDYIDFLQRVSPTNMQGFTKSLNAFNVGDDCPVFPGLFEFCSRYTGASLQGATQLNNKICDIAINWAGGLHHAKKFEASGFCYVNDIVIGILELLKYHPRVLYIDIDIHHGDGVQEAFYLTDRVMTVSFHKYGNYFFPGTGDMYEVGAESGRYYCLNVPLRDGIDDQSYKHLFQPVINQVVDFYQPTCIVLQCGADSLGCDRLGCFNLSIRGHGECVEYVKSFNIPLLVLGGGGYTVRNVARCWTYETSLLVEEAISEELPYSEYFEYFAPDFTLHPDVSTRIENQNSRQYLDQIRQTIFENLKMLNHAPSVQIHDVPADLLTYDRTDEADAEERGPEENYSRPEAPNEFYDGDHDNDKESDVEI

| Target | log2 fold change |
| --- | --- |
| POLR3A (peptide sequence: NICHHCGAFNGTVK, peptide start residue: 154) (UniProt O14802) | -0.17 |
| SYNJ2 (peptide sequence: GGEEVLNR, peptide start residue: 308) (UniProt O15056) | -0.145 |
| TRAFD1 (peptide sequence: AFESDVFHNR, peptide start residue: 188) (UniProt O14545) | -0.134 |
| COPE (peptide sequence: DSIVAELDR, peptide start residue: 98) (UniProt O14579) | 0.296 |
| HMGN4 (peptide sequence: VKDEPQRR, peptide start residue: 17) (UniProt O00479) | -0.0944 |
| UniProt O14709 (peptide sequence: IHTGEKPYGCNDCSK, peptide start residue: 951) | 0.402 |
| MEIS1 (peptide sequence: DHDDTASTR, peptide start residue: 216) (UniProt O00470) | 0.565 |
| SPTLC2 (peptide sequence: ANGCVANGEVR, peptide start residue: 16) (UniProt O15270) | 0.11 |
| NVL (peptide sequence: TLFVGLPPPADR, peptide start residue: 743) (UniProt O15381) | 0.319 |
| UniProt O14966 (peptide sequence: LQLWDIAGQER, peptide start residue: 77) | -0.117 |
| HDAC3 (peptide sequence: LALTHSLVLHYGLYK, peptide start residue: 29) (UniProt O15379) | 0.814 |

Random excerpt: two records from the list.

| Target | log2 fold change |
| --- | --- |
| HMGN4 (peptide sequence: VKDEPQRR, peptide start residue: 17) (UniProt O00479) | -0.0944 |
| SYNJ2 (peptide sequence: GGEEVLNR, peptide start residue: 308) (UniProt O15056) | -0.145 |

From the supplement of paper PMC12819154, “High-throughput peptide-centric local stability assay extends protein–ligand identification to membrane proteins, tissues and bacteria” (Nature Structural & Molecular Biology, 2025)
